These results are taken from publication PMC10567574, “piRNA processing by a trimeric Schlafen-domain nuclease” (Nature, 2023).

Test [1] has as its target T1, TOFU-2 (residues 200-433, E216A), subunit of inactive mini-PUCH (C. elegans) (UniProt Q19614).
T1 sequence: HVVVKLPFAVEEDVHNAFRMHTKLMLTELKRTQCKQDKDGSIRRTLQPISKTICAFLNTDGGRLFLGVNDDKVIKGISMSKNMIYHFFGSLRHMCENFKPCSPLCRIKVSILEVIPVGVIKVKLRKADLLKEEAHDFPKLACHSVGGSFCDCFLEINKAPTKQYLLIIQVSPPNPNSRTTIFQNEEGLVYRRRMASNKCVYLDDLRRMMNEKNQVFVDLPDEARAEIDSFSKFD
Put plainly: co-purification of a co-expressed complex (IMAC, heparin, SEC); TOFU-1 160-373, TOFU-2 200-433 (or E216A) and SLFL-3 1-345 co-expressed in E. coli BL21(DE3); HisTrap, HiTrap Heparin, then HiLoad Superdex 200 16/600 in 20 mM Tris/HCl pH 7.5, 150 mM NaCl, 10% glycerol, 2 mM DTT.

In test [2] the target is T2, TOFU-2 (residues 200-433), subunit of mini-PUCH (C. elegans) (UniProt Q19614).
T2 sequence: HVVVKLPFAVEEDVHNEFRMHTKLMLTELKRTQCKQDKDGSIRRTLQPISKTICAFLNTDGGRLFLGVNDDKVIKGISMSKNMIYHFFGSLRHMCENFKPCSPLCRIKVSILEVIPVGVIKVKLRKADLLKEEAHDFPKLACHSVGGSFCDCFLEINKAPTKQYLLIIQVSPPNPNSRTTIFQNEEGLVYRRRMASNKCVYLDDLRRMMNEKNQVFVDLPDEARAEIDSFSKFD
Described as above.

Test [3] has as its target T3, eGFP-TOFU-2 (full-length CeTOFU-2) (C. elegans) (UniProt Q19614).
T3 sequence: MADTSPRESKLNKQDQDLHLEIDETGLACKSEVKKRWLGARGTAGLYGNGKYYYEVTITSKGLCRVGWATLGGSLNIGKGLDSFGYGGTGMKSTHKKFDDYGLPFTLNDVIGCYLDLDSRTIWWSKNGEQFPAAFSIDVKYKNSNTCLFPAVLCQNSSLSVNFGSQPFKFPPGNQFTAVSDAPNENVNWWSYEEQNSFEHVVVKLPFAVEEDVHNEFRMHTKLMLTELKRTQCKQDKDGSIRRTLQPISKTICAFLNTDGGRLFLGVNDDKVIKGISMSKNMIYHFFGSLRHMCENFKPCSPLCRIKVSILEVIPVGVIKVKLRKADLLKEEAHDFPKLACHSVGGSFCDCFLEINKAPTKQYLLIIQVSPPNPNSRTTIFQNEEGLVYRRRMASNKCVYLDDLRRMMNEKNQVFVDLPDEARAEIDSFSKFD
Put plainly: co-IP; BmN4 cells transfected with the indicated constructs; eGFP-TOFU-2 immunoprecipitated with GFP-Trap beads overnight at 4 C in IP-150 lysis buffer (30 mM HEPES pH 7.4, 150 mM KOAc, 2 mM Mg(OAc)2, 0.1% IGEPAL); western blot for Flag and HA. A general note: Immunoblotting shows a protein as a band on a membrane.

Test [4] has as its target T4, TOFU-1^82-172 L88R/L92R (C. elegans) (UniProt O17608).
T4 sequence: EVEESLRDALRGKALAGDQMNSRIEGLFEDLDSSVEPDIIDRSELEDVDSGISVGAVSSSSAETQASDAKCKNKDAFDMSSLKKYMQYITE
Put plainly: SEC; purified proteins alone or mixed at 20-40 uM, 1 h on ice; Superdex 200 Increase 3.2/300 in 20 mM Tris/HCl pH 7.5, 150 mM NaCl, 2 mM DTT; elution volumes compared, peak fractions on SDS-PAGE; both purified.

The next test has as its target T5, MBP-tagged TOFU-1^82-373 (C. elegans, UniProt O17608 82-373).
T5 construct: TOFU-1 (SLFL-1), C. elegans, residues 82-373; source: E. coli BL21(DE3) derivative, purified; not shown: MBP, N-terminal, kept
T5 sequence (looked up): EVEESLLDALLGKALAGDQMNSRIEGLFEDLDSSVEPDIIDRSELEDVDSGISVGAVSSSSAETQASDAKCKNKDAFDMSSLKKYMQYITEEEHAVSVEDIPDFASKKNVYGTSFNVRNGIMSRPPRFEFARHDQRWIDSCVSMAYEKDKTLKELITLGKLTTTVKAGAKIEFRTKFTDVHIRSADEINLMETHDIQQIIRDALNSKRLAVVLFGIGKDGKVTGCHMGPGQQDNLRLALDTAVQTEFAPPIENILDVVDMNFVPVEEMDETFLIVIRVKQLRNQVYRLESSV
Put plainly: pull-down; purified MBP-tagged TOFU-1 as bait on amylose beads, incubated with excess prey; 20 mM Tris/HCl pH 7.5, 150 mM NaCl, 10% glycerol, 0.05% NP40, 1 mM DTT; SDS-PAGE with Coomassie staining; both purified.

Results are given in words; binding and its absence hold for the method and conditions named. For part of these data: Binding seen in cells or lysates may run through a third protein. Some binding calls cover weakened binding; strength is not graded here. For part of these data: Where a sequence is shown, tags or fusion partners need not be part of it.

B1: TOFU-1 (residues 160-373), subunit of mini-PUCH (domain or fragment, UniProt O17608 160-373)
chain: MSSLKKYMQYITEEEHAVSVEDIPDFASKKNVYGTSFNVRNGIMSRPPRFEFARHDQRWIDSCVSMAYEKDKTLKELITLGKLTTTVKAGAKIEFRTKFTDVHIRSADEINLMETHDIQQIIRDALNSKRLAVVLFGIGKDGKVTGCHMGPGQQDNLRLALDTAVQTEFAPPIENILDVVDMNFVPVEEMDETFLIVIRVKQLRNQVYRLESSV
B1: the binding result in test [1] and in test [2] was “binds” throughout.

B2: HA-SLFL-4 (CeSLFL4) (protein, UniProt O76720 1-352)
chain: MIDKIVFEEDEEYDLTQDSFRYGRVTTGASYNLVTGKIPETVLEQVKAKDDENDDVEFEMDHLEDKEAVQKTKTFDELYESQMPKYFEYQSNFSEVNGIWTLLFDQNHYENMSTFELQAAICAALNSKHYMMICVGIDAFNAVTGVEMSAKDRVVFRMALTRAVAGEFQPPLVKVAPKQLTGVSPMKRDISEVTSSIDVLFIPVIGVTDEVENNRFLIVVRVKEISDKVYQISSGRIYNELEGRVVEMSDMNEAFHKLIVEQSISDIQTRRGSMFMLEPEPFLEDSPVIFTGSKEILRENHEIPNILKENSTERSLSQSLLNLLDIQNIGWIFFGTALSCCIYNNAIKPLVK
B2: the binding entry in test [3] is “binds”.

B3: TOFU-6^eTUDOR V266E (domain or fragment, UniProt Q09293 119-314)
chain: VLLSSSWLPLNKDIEVEVVDYLPSSSVAPDLFALTLLRINDSSMKEKYDSMHEKMNAYAQIVPFDSELEIGYDGVFRDAPRSVRRVRRISATKLYLVDFGKIINYEKAKCFQLPKVFQSMPTRVSLCGLDGLTWSPVAIPSFDNIREEVKKWGQMENSTLHAMACGFQGSINMINLFCGKSILADRLQRKGVCEYL
As to B3, in test [4], the binding result is on record as “no binding”.

B4: PETISCO (recombinant, reconstituted: IFE-3, TOFU-6, ERH-2 and PID-3) (complex, UniProt O61955 1-251; Q09293 1-367; O76616 1-307; Q20057 1-113)
chain 1: MSTSVAENKALSASGDVNASDASVPPELLTRHPLQNRWALWYLKADRNKEWEDCLKMVSLFDTVEDFWSLYNHIQSAGGLNWGSDYYLFKEGIKPMWEDVNNVQGGRWLVVVDKQKLQRRTQLLDHYWLELLMAIVGEQFDEYGDYICGAVVNVRQKGDKVSLWTRDATRDDVNLRIGQVLKQKLSIPDTEILRYEVHKDSSARTSSTVKPRICLPAKDPAPVKEKGPAATTSPSNPGTEATGTSPATPTP
chain 2: MASSSTAYYLKDAGFHIRNIPKAWNDWNLFHVFQNFGKVSYCRVVGQSNDGQVQLGFVNMMSVADADEVRKNLNDGNLIGENFTLKVTDHKNVGGSLLPMASNSVQKLVSSPPSKSGPVLLSSSWLPLNKDIEVEVVDYLPSSSVAPDLFALTLLRINDSSMKEKYDSMHEKMNAYAQIVPFDSELEIGYDGVFRDAPRSVRRVRRISATKLYLVDFGKIINYEKAKCFQLPKVFQSMPTRVSLCGLDGLTWSPVAIPSFDNIREVVKKWGQMENSTLHAMACGFQGSINMINLFCGKSILADRLQRKGVCEYLPRSQQPHYAYSRETLLQHNNSGVTAQISNDADVVKDLLKKIDGVKNMLRELEL
chain 3: MVAHQKADFKSKWAMVVTVNNLNDKKRADLREFSEWFIETLRLEGAFIGHYFNYEAAPVTIVETLPGNFDSCTNAYQKIHKEHPQVVLVVHILPQSQSNEYEWMKVLASRYGFVRQGLLYDNCANRFQNVETDQNSVFRNMCQWIYRSGTAIVRNEGNACGILHGKDPKPTFDKVLFNSEDIKDSVFKVLHAEEEPRGADQENMLKISGYPGMLNTFGIAQLLTPYRVNGITITGAQSAVVALENKFQVYQAVQDFNGKKLDRNHKLQVSSLVVSSPAVPLEWPSLKKSKKLVEQVGKPIRLSKVSS
chain 4: MSTSSHTVLLIQTSPRLDSRTWGDYESVTDALDALCKMFEDFLSKKSAAPVTYDVSQVYEFLDKLSDVSMMIFNRETGQYIGRTRAWIKQQVYEMMRGRCQHPEGGEKVIVGY
On to B4, for which the binding entry with MBP-tagged TOFU-1^82-373 is “binds”.

B5: TOFU-1-3xFlag-mCherry (CeTOFU-1) (protein, UniProt O17608 1-373)
chain: MAALFEENDSYSDSENEEDFSGFLSEIEENENEDEFENDDEFEDDDELENVDELEDDELSSEEVDIPSENEVIVELHDGQAEVEESLLDALLGKALAGDQMNSRIEGLFEDLDSSVEPDIIDRSELEDVDSGISVGAVSSSSAETQASDAKCKNKDAFDMSSLKKYMQYITEEEHAVSVEDIPDFASKKNVYGTSFNVRNGIMSRPPRFEFARHDQRWIDSCVSMAYEKDKTLKELITLGKLTTTVKAGAKIEFRTKFTDVHIRSADEINLMETHDIQQIIRDALNSKRLAVVLFGIGKDGKVTGCHMGPGQQDNLRLALDTAVQTEFAPPIENILDVVDMNFVPVEEMDETFLIVIRVKQLRNQVYRLESSV
Turning to B5, the binding result in test [3] is listed as “binds”.

B6: SLFL-3 (residues 1-345), subunit of mini-PUCH (domain or fragment, UniProt O61766 1-345)
chain: MDSGDFSPMQSNFSLGFMSFEDIPEDARTTEMIDKIVFEEDKEYDHTQDSFRYGRVTTGVSYNLVTGKIPKTVFEQVKAKDDENDNVEFEMEHLEDKETAHKTQTFDELYESQMPKYFDYQSNFSDVNGIWTLLFDQNHYEKMSTFELQAAICAALNSKHFMMICVGIDAFNAVTGVEMSAKDRVVFRMALTRAVAGEFQPPLVKVAPKQLTGVSPMKRDISEVTSSIDVLFVPVIGVTDEVENNRFLIVVRVKEISDKVYQISSGRIYNEQEGRVVEMSDMNEAFHKLIVEKSISDIQTRRGSMFMLEPEPFLEDSAVIFTESNEIPSENHEISRVHVKNCTER
As for B6, the binding entry in test [1] and in test [2] was “binds” in each case.

B7: HA-SLFL-3 (CeSLFL3) (protein, UniProt O61766 1-383)
chain: MDSGDFSPMQSNFSLGFMSFEDIPEDARTTEMIDKIVFEEDKEYDHTQDSFRYGRVTTGVSYNLVTGKIPKTVFEQVKAKDDENDNVEFEMEHLEDKETAHKTQTFDELYESQMPKYFDYQSNFSDVNGIWTLLFDQNHYEKMSTFELQAAICAALNSKHFMMICVGIDAFNAVTGVEMSAKDRVVFRMALTRAVAGEFQPPLVKVAPKQLTGVSPMKRDISEVTSSIDVLFVPVIGVTDEVENNRFLIVVRVKEISDKVYQISSGRIYNEQEGRVVEMSDMNEAFHKLIVEKSISDIQTRRGSMFMLEPEPFLEDSAVIFTESNEIPSENHEISRVHVKNCTERSLSQSLLNLLDIQNIGWIFFGTALSFCIYNNAIKPLVK
For the molecule B7, the binding result in test [3] is “binds”.
